According to US20170304384A1:
Results are given in words; binding and its absence hold for the method and conditions named. Some results given as binding are weak or reduced against the parent protein; the word gives no strength.

Amino acid sequences for entries named in this document (tags omitted). Residues count along the entry.
UniProt P42858, residues 1-610: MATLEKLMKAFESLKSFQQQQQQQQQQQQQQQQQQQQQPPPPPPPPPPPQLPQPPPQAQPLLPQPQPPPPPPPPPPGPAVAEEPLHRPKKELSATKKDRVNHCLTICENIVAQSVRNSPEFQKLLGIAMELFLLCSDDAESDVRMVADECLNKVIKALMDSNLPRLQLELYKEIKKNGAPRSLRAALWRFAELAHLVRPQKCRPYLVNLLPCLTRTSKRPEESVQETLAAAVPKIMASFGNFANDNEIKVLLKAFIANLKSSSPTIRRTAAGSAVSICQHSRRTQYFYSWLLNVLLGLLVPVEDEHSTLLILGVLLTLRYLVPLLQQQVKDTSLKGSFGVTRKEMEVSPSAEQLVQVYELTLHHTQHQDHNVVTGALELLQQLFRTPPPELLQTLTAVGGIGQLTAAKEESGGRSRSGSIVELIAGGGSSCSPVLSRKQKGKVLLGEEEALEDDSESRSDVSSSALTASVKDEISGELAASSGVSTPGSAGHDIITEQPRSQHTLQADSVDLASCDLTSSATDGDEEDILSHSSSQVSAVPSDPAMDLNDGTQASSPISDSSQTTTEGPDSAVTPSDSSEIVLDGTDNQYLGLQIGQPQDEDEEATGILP

B1: monoclonal antibody PRR13 (antibody, mouse IgG2a, V domains shown)
VH: EVQLQQSAPELVKPGASVKMSCKASGYSFTDFYMKWVKQSHGKGLEWIGDIDPKNGDTFYNQKFKGRATLTVDKSSSTAYMQLNSLTTEDSAVYYCATYYGYTMDYWGQGTSVTVSS
VL: QIVLTQSPAIMSASLGERVTMTCTASSSVTSSYLHWYQQKPGSSPKLWIYSTSNLASGVPARFSGSGSGTSYSLTISSMEAEDAATYYCHQYRRPPRTFGGGTKLEIKR
B2: monoclonal antibody C6-17 (antibody, mouse IgG2a, V domains shown)
VH: EVQLQQSGPELVKPGASVKISCKTSGYTFTEYTMHWVKQSHGKSLEWIGGINPNNGGTRYNQKFKGKATLTVDRSSSTAYMELRSLTSEDSAVYYCASLDGRDYWGQGTTLTVSS
VL: DIVMSQSPSSLAVSAGEKVTMSCKSSQSLLNSRTRKNYLAWYQQKPGQSPKLLIYWASTRESGVPDRFTGSGSGTDFTLTISSVQAEDLAVYSCKQSYNLLTFGAGTKLELKR

Legend:
[1] = target: recombinant N-terminal 610 amino acids Huntingtin fragment recHTT610 (human) (UniProt P42858); assay: recHTT610 capture ELISA
[2] = target: recombinant N-terminal 610 amino acids Huntingtin fragment recHTT610 (human) (UniProt P42858); assay: recHTT610 protein capture ELISA
[3] = target: recombinant N-terminal 610 amino acids Huntingtin fragment recHTT610 (human) (UniProt P42858); assay: recHTT610 protein capture ELISA, Huntingtin-specific OD signal against control extract

Binder | binding [1] | binding [2] | binding [3]
B1 | binds | binds | –
B2 | – | – | binds
